Experimental findings from article PMC11189558, “Mutations found in cancer patients compromise DNA binding of the winged helix protein STK19” are described below.

Substitutions are numbered along the chain they refer to. For some of these results: Weaker means in comparison with the reference protein, sequence or condition of that experiment. Tags and fusion partners may be left off the protein sequences shown. For some of these results: The exact form of at least one protein or probe is not confirmed. For some of these results: At least one verdict was read from the data and is not stated in words by the source.

Assay in all cases: EMSA
(In EMSA bound probe runs differently from free probe, usually more slowly.)

One series deals with T1, STK19 (31-254) (human) (UniProt P49842).
T1 sequence (looked up): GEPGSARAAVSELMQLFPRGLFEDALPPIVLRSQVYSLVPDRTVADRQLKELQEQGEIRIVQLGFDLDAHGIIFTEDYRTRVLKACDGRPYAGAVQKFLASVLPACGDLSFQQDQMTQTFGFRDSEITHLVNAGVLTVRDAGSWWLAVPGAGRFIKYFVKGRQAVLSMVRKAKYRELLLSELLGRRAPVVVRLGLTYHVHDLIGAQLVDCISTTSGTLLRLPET
Conditions: 20 mM HEPES pH 7.4, 100 mM NaCl, 1 mM MgCl2, 1 mg/ml BSA, 2 mM DTT, 5% glycerol; 30 min on ice; native 5% PAGE in 1X TBE; recombinant protein; residues 31-254; protein details: GST cleaved, GPLGS left at N-terminus.

In a further series the target is T2, STK19 K186N (human) (UniProt P49842).
T2 sequence (looked up): T1 sequence (looked up) with K156N
Conditions: n = 2; 20 mM HEPES pH 7.4, 100 mM NaCl, 1 mM MgCl2, 1 mg/ml BSA, 2 mM DTT, 5% glycerol; 30 min on ice; native 5% PAGE in 1X TBE; recombinant protein; residues 31-254; protein details: GST cleaved, GPLGS left at N-terminus.

The target in a further series is T3, STK19 R200W (human) (UniProt P49842).
T3 sequence (looked up): T1 sequence (looked up) with R170W
Conditions: n = 2; 20 mM HEPES pH 7.4, 100 mM NaCl, 1 mM MgCl2, 1 mg/ml BSA, 2 mM DTT, 5% glycerol; 30 min on ice; native 5% PAGE in 1X TBE; recombinant protein; residues 31-254; protein details: GST cleaved, GPLGS left at N-terminus.

For another series, the target named is T4, STK19 R215W (human) (UniProt P49842).
T4 sequence (looked up): T1 sequence (looked up) with R185W
Particulars: n = 2; 20 mM HEPES pH 7.4, 100 mM NaCl, 1 mM MgCl2, 1 mg/ml BSA, 2 mM DTT, 5% glycerol; 30 min on ice; native 5% PAGE in 1X TBE; recombinant protein; residues 31-254; protein details: GST cleaved, GPLGS left at N-terminus.

With “GAGCTGCCGAATTCTACCAGTGCCTTGCTAGGACATCTTTGCCCACCTGCAGGTTCACC (double strand) [59 bp dsDNA]”, the binding result with STK19 (31-254) (human) was “binds”; with STK19 K186N (human) it was “binds more weakly”; with STK19 R200W (human), “binds more weakly”; with STK19 R215W (human), “binds more weakly”.
